In PMC11079029, “Intramolecular autoinhibition regulates the selectivity of PRPF40A tandem WW domains for proline-rich motifs” (Nature Communications, 2024):
These are yes or no findings as the source states them, for the method shown. In cells and extracts the contact can be indirect. These calls come from enrichment with a bait or labelling near it, and not all partners need be listed.

Molecular target: GFP-tagged PRPF40A N-terminal region (PRPF40A-Nter-WT) (human)
Experiment: affinity purification with mass spectrometry; SILAC; GFP-tagged constructs expressed in HeLa cells, 2.5 mg lysate in mRIPA buffer on GFP-nanobody agarose beads, 1 h at 4 °C; compared with GFP alone

B1: LARP7, endogenous (protein, UniProt Q4G0J3 1-582)
chain: METESGNQEKVMEEESTEKKKEVEKKKRSRVKQVLADIAKQVDFWFGDANLHKDRFLREQIEKSRDGYVDISLLVSFNKMKKLTTDGKLIARALRSSAVVELDLEGTRIRRKKPLGERPKDEDERTVYVELLPKNVNHSWIERVFGKCGNVVYISIPHYKSTGDPKGFAFVEFETKEQAAKAIEFLNNPPEEAPRKPGIFPKTVKNKPIPALRVVEEKKKKKKKKGRMKKEDNIQAKEENMDTSNTSISKMKRSRPTSEGSDIESTEPQKQCSKKKKKRDRVEASSLPEVRTGKRKRSSSEDAESLAPRSKVKKIIQKDIIKEASEASKENRDIEISTEEEKDTGDLKDSSLLKTKRKHKKKHKERHKMGEEVIPLRVLSKSEWMDLKKEYLALQKASMASLKKTISQIKSESEMETDSGVPQNTGMKNEKTANREECRTQEKVNATGPQFVSGVIVKIISTEPLPGRKQVRDTLAAISEVLYVDLLEGDTECHARFKTPEDAQAVINAYTEINKKHCWKLEILSGDHEQRYWQKILVDRQAKLNQPREKKRGTEKLITKAEKIRLAKTQQASKHIRFSEYD
- binding: binds

B2: MEPCE, endogenous (protein, UniProt Q7L2J0 1-689)
chain: MIEMAAEKEPFLVPAPPPPLKDESGGGGGPTVPPHQEAASGELRGGTERGPGRCAPSAGSPAAAVGRESPGAAATSSSGPQAQQHRGGGPQAQSHGEARLSDPPGRAAPPDVGEERRGGGGTELGPPAPPRPRNGYQPHRPPGGGGGKRRNSCNVGGGGGGFKHPAFKRRRRVNSDCDSVLPSNFLLGGNIFDPLNLNSLLDEEVSRTLNAETPKSSPLPAKGRDPVEILIPKDITDPLSLNTCTDEGHVVLASPLKTGRKRHRHRGQHHQQQQAAGGSESHPVPPTAPLTPLLHGEGASQQPRHRGQNRDAPQPYELNTAINCRDEVVSPLPSALQGPSGSLSAPPAASVISAPPSSSSRHRKRRRTSSKSEAGARGGGQGSKEKGRGSWGGRHHHHHPLPAAGFKKQQRKFQYGNYCKYYGYRNPSCEDGRLRVLKPEWFRGRDVLDLGCNVGHLTLSIACKWGPSRMVGLDIDSRLIHSARQNIRHYLSEELRLPPQTLEGDPGAEGEEGTTTVRKRSCFPASLTASRGPIAAPQVPLDGADTSVFPNNVVFVTGNYVLDRDDLVEAQTPEYDVVLCLSLTKWVHLNWGDEGLKRMFRRIYRHLRPGGILVLEPQPWSSYGKRKTLTETIYKNYYRIQLKPEQFSSYLTSPDVGFSSYELVATPHNTSKGFQRPVYLFHKARSPSH
- binding: binds
